Measurements as given in paper PMC10864425.
Results are given in words; binding and its absence hold for the method and conditions named. Binding seen in cells or lysates may run through a third protein. Some results given as binding are weak or reduced against the parent protein; the word gives no strength. Where a sequence is shown, tags or fusion partners need not be part of it.

Amino acid sequences for entries named in this document (tags omitted).
UniProt Q969H0: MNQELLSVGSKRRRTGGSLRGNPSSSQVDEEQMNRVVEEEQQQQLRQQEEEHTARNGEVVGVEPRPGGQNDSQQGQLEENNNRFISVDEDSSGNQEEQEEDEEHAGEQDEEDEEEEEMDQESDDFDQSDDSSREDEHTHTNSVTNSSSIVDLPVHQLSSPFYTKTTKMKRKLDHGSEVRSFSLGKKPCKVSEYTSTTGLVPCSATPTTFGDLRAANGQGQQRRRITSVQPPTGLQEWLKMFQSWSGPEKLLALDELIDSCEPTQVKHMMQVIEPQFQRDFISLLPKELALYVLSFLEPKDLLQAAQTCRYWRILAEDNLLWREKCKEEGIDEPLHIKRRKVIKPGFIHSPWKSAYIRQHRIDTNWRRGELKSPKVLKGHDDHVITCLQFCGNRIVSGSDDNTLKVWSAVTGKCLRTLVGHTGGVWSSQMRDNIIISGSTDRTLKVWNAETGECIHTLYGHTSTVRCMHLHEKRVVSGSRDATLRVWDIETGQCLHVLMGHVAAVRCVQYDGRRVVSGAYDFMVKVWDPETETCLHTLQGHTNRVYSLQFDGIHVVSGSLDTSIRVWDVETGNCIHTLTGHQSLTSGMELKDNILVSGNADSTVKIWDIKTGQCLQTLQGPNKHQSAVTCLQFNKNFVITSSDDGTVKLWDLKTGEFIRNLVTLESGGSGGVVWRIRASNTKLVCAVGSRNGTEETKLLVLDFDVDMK

Target: T1, flag-tagged FBP1 (wild type) (human) (UniProt P09467)
T1 sequence: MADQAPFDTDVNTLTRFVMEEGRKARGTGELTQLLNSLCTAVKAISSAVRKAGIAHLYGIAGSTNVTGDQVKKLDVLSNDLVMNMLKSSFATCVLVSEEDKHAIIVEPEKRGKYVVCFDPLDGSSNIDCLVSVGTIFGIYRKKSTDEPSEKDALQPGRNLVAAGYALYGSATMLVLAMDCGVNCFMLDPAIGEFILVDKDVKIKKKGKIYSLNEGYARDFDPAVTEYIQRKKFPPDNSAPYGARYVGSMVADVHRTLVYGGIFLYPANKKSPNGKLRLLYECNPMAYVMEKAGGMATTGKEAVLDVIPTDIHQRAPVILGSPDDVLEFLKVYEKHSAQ
Assay: co-IP; H1299 cells transfected 48 h with HA-NICD1 and flag-FBP1 (WT) or vector plasmids, then treated with MG-132 for 8 h; lysate on antibody cross-linked to protein A/G magnetic beads

E3 ubiquitin ligase FBXW7 (from UniProt Q969H0 1-707)
binding: binds
